Experimental data: patent WO2017175058A1 (dated 2017)
No constants are given. Whether binding was seen depends on the method and setting. Some binding calls cover weakened binding; strength is not graded here.

Tests used:
[1] = target: cynomolgus VISTA on K562 cells (cynomolgus); test: FACS K562-C7
[2] = target: cynomolgus VISTA extracellular domain (cynomolgus); test: ELISA

binding [1]: binds | binding [2]: binds
B1: VSTB53 (antibody, human IgG1, V domains shown)
VH: QVQLVQSGAEVKKPGASVKVSCKASGYTFTHYTIHWVRQAPGQGLEWMGYIIPSSGYSEYNQKFKDRVTMTRDTSTSTVYMELSSLRSEDTAVYYCARGAYDDYYDYYAMDYWGQGTLVTVSS
VL: DIVMTQSPLSLPVTPGEPASISCRSSQTIVHSNGNTYLEWYLQKPGQSPQLLIYKVSNRFSGVPDRFSGSGSGTDFTLKISRVEAEDVGVYYCFQASHVPWTFGQGTKLEIK
